This is one part of the list.
Legend:
Assay in all cases: glycan array binding signal (z-score within array); higher = stronger binding
Conditions in all cases: glycan notation: IUPAC condensed, linker removed
[1] = target: Fuc(a1-2)Gal(b1-4)GlcNAc(b1-6)GalNAc
In short: (§1)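 Glycan array data came from 3228 arrays in the Consortium for Functional Glycomics database, and only arrays with an available protein sequence were kept. Glycan names were put into IUPAC-condensed notation, and columns mapping to the same glycan were averaged. The binding signal is a within-array Z-score, averaged across arrays of one protein sequence run at different concentrations or buffers and across linkers. A negative Z-score can be read as non-binding.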

[2] = target: Fuc(a1-2)Gal(b1-4)GlcNAc6S
In short: as §1

[3] = target: Fuc(a1-2)Gal(b1-4)[Fuc(a1-3)]GlcNAc
In short: as §1

[4] = target: Fuc(a1-2)Gal(b1-4)[Fuc(a1-3)]GlcNAc(b1-2)Man(a1-3)[Fuc(a1-2)Gal(b1-4)[Fuc(a1-3)]GlcNAc(b1-2)Man(a1-6)]Man(b1-4)GlcNAc(b1-4)GlcNAc
In short: as §1

[5] = target: Fuc(a1-2)Gal(b1-4)[Fuc(a1-3)]GlcNAc(b1-2)Man(a1-3)[Fuc(a1-2)Gal(b1-4)[Fuc(a1-3)]GlcNAc(b1-2)Man(a1-6)]Man(b1-4)GlcNAc(b1-4)[Fuc(a1-6)]GlcNAc
In short: as §1

[6] = target: Fuc(a1-2)Gal(b1-4)[Fuc(a1-3)]GlcNAc(b1-2)[Fuc(a1-2)Gal(b1-4)[Fuc(a1-3)]GlcNAc(b1-4)]Man(a1-3)[Fuc(a1-2)Gal(b1-4)[Fuc(a1-3)]GlcNAc(b1-2)Man(a1-6)]Man(b1-4)GlcNAc(b1-4)GlcNAc
In short: as §1

[7] = target: Fuc(a1-2)Gal(b1-4)[Fuc(a1-3)]GlcNAc(b1-3)Gal(b1-4)[Fuc(a1-3)]GlcNAc
In short: as §1

[8] = target: Fuc(a1-2)Gal(b1-4)[Fuc(a1-3)]GlcNAc(b1-3)Gal(b1-4)[Fuc(a1-3)]GlcNAc(b1-3)Gal(b1-4)[Fuc(a1-3)]GlcNAc
In short: as §1

[9] = target: Fuc(a1-2)Gal(b1-4)[Fuc(a1-3)]GlcNAc(b1-3)GalNAc
In short: as §1

[10] = target: Fuc(a1-2)Gal(b1-4)[Fuc(a1-3)]GlcNAc(b1-3)[Neu5Ac(a2-6)Gal(b1-4)GlcNAc(b1-6)]Gal(b1-4)Glc
In short: as §1

[11] = target: Fuc(a1-2)Gal3S(b1-4)GlcNAc
In short: as §1

[12] = target: Fuc(a1-2)Gal6S(b1-3)GlcNAc
In short: as §1

[13] = target: Fuc(a1-2)Gal6S(b1-3)GlcNAc6S
In short: as §1

Fuc(a1-2)Gal6S(b1-4)Glc = target: Fuc(a1-2)Gal6S(b1-4)Glc
In short: as §1

[14] = target: Fuc(a1-2)Gal6S(b1-4)Glc6S
In short: as §1

[15] = target: Fuc(a1-2)Gal6S(b1-4)GlcNAc
In short: as §1

Fuc(a1-2)[Gal(a1-3)]Gal = target: Fuc(a1-2)[Gal(a1-3)]Gal
In short: as §1

[16] = target: Fuc(a1-2)[Gal(a1-3)]Gal(b1-3)GalNAc
In short: as §1

[17] = target: Fuc(a1-2)[Gal(a1-3)]Gal(b1-3)GalNAc(b1-3)Gal(a1-4)Gal(b1-4)Glc
In short: as §1

[18] = target: Fuc(a1-2)[Gal(a1-3)]Gal(b1-3)GlcNAc
In short: as §1

[19] = target: Fuc(a1-2)[Gal(a1-3)]Gal(b1-3)GlcNAc(b1-2)Man(a1-3)[Fuc(a1-2)[Gal(a1-3)]Gal(b1-3)GlcNAc(b1-2)Man(a1-6)]Man(b1-4)GlcNAc(b1-4)GlcNAc
In short: as §1

[20] = target: Fuc(a1-2)[Gal(a1-3)]Gal(b1-3)GlcNAc(b1-2)Man(a1-3)[Fuc(a1-2)[Gal(a1-3)]Gal(b1-3)GlcNAc(b1-2)Man(a1-6)]Man(b1-4)GlcNAc(b1-4)[Fuc(a1-6)]GlcNAc
In short: as §1

[21] = target: Fuc(a1-2)[Gal(a1-3)]Gal(b1-3)GlcNAc(b1-3)GalNAc
In short: as §1

[22] = target: Fuc(a1-2)[Gal(a1-3)]Gal(b1-3)GlcNAc(b1-6)GalNAc
In short: as §1

[23] = target: Fuc(a1-2)[Gal(a1-3)]Gal(b1-4)Glc
In short: as §1

[24] = target: Fuc(a1-2)[Gal(a1-3)]Gal(b1-4)GlcNAc
In short: as §1

[25] = target: Fuc(a1-2)[Gal(a1-3)]Gal(b1-4)GlcNAc(b1-2)Man
In short: as §1

[26] = target: Fuc(a1-2)[Gal(a1-3)]Gal(b1-4)GlcNAc(b1-2)Man(a1-3)[Fuc(a1-2)[Gal(a1-3)]Gal(b1-4)GlcNAc(b1-2)Man(a1-6)]Man(b1-4)GlcNAc(b1-4)GlcNAc
In short: as §1

[27] = target: Fuc(a1-2)[Gal(a1-3)]Gal(b1-4)GlcNAc(b1-2)Man(a1-3)[Fuc(a1-2)[Gal(a1-3)]Gal(b1-4)GlcNAc(b1-2)Man(a1-6)]Man(b1-4)GlcNAc(b1-4)[Fuc(a1-6)]GlcNAc
In short: as §1

[28] = target: Fuc(a1-2)[Gal(a1-3)]Gal(b1-4)GlcNAc(b1-3)GalNAc
In short: as §1

[29] = target: Fuc(a1-2)[Gal(a1-3)]Gal(b1-4)GlcNAc(b1-3)[Fuc(a1-2)[Gal(a1-3)]Gal(b1-4)GlcNAc(b1-6)]GalNAc
In short: as §1

[30] = target: Fuc(a1-2)[Gal(a1-3)]Gal(b1-4)GlcNAc(b1-6)GalNAc
In short: as §1

[31] = target: Fuc(a1-2)[Gal(a1-3)]Gal(b1-4)[Fuc(a1-3)]Glc
In short: as §1

[32] = target: Fuc(a1-2)[Gal(a1-3)]Gal(b1-4)[Fuc(a1-3)]GlcNAc
In short: as §1

[33] = target: Fuc(a1-2)[Gal(a1-3)]Gal(b1-4)[Fuc(a1-3)]GlcNAc(b1-3)GalNAc
In short: as §1

[34] = target: Fuc(a1-2)[Gal(a1-4)]Gal(b1-4)GlcNAc
In short: as §1

[35] = target: Fuc(a1-2)[GalNAc(a1-3)]Gal
In short: as §1

[36] = target: Fuc(a1-2)[GalNAc(a1-3)]Gal(b1-3)GalNAc(a1-3)[Fuc(a1-2)]Gal(b1-4)GlcNAc
In short: as §1

B1: GST Gap3 (Streptococcus parasanguinis) (protein)
chain: MTKQLISEIYWNEIRKGENYLYGSQIKFQEDLVNFYNPQLASGKPIVTFKSRTNYQGDRHSPDLPILIQGNRYLLEYQIDAVPANSFFLQLDFFNRQAEQIESIVLRNSGESFIFPKDTFTYTLTLMSAGCQSVTYQKFMIYDINDEEKKNHIVENRYLRELLPKDLDLVKNLIEYI
glycan array binding signal (z-score) [1]: -0.108 | glycan array binding signal (z-score) [2]: -0.096 | glycan array binding signal (z-score) [3]: 0.037 | glycan array binding signal (z-score) [4]: 0.952 | glycan array binding signal (z-score) [5]: 0.367 | glycan array binding signal (z-score) [6]: 0.945 | glycan array binding signal (z-score) [7]: 0.061 | glycan array binding signal (z-score) [8]: 1.25 | glycan array binding signal (z-score) [9]: 0.492 | glycan array binding signal (z-score) [10]: -0.463 | glycan array binding signal (z-score) [11]: -0.348 | glycan array binding signal (z-score) [12]: -0.051 | glycan array binding signal (z-score) [13]: 2.06 | glycan array binding signal (z-score) (Fuc(a1-2)Gal6S(b1-4)Glc): -0.095 | glycan array binding signal (z-score) [14]: -0.051 | glycan array binding signal (z-score) [15]: -0.073 | glycan array binding signal (z-score) (Fuc(a1-2)[Gal(a1-3)]Gal): -0.37 | glycan array binding signal (z-score) [16]: -0.35 | glycan array binding signal (z-score) [17]: -0.553 | glycan array binding signal (z-score) [18]: -0.451 | glycan array binding signal (z-score) [19]: 0.145 | glycan array binding signal (z-score) [20]: -0.264 | glycan array binding signal (z-score) [21]: 0.007 | glycan array binding signal (z-score) [22]: -0.112 | glycan array binding signal (z-score) [23]: -0.045 | glycan array binding signal (z-score) [24]: -0.387 | glycan array binding signal (z-score) [25]: -0.61 | glycan array binding signal (z-score) [26]: 0.383 | glycan array binding signal (z-score) [27]: 0.053 | glycan array binding signal (z-score) [28]: -0.168 | glycan array binding signal (z-score) [29]: 0.249 | glycan array binding signal (z-score) [30]: -0.106 | glycan array binding signal (z-score) [31]: -0.358 | glycan array binding signal (z-score) [32]: 0.502 | glycan array binding signal (z-score) [33]: 0.147 | glycan array binding signal (z-score) [34]: -0.28 | glycan array binding signal (z-score) [35]: -0.119 | glycan array binding signal (z-score) [36]: 0.334

From the supplement of paper PMC8728848
